The supplement of paper PMC6411743
± gives the standard deviation of the averaged measurements. The entries are a selection whose mix differs from that of the whole data set. Small differences around the control level are noise.

Amino acid sequences for entries named in this document (tags omitted). A change or cut given only in a name is not applied to a line headed by its entry.
UniProt Q9Y228: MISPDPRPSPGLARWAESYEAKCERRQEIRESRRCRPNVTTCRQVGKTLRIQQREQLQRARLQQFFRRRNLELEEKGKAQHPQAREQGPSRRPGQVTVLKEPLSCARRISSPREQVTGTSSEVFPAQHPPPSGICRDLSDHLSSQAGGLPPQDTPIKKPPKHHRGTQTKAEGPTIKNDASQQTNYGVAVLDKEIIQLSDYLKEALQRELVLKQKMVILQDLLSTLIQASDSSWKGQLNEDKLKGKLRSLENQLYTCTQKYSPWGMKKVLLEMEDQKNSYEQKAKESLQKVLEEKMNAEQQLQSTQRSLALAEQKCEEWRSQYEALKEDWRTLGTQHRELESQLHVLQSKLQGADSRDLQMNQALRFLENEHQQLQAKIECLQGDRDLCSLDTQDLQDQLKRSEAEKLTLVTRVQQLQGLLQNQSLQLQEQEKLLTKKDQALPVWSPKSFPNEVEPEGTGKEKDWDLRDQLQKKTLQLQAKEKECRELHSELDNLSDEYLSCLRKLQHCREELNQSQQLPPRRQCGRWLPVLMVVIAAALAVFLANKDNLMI
UniProt Q9UJ83: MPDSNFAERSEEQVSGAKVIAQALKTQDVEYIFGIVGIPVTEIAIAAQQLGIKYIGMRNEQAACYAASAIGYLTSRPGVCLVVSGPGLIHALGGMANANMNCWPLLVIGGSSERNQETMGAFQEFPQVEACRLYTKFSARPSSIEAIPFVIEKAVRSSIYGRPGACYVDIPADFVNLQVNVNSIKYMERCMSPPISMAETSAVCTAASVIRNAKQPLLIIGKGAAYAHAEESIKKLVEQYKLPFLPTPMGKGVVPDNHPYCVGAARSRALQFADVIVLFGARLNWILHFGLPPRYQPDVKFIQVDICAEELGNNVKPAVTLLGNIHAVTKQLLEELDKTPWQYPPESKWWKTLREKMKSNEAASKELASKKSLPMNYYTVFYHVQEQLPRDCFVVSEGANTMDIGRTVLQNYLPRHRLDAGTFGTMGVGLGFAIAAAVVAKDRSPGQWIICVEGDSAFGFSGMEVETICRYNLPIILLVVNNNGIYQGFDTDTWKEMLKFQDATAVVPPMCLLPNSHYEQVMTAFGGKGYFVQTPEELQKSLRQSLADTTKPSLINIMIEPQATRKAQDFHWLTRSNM
UniProt Q9UPU5: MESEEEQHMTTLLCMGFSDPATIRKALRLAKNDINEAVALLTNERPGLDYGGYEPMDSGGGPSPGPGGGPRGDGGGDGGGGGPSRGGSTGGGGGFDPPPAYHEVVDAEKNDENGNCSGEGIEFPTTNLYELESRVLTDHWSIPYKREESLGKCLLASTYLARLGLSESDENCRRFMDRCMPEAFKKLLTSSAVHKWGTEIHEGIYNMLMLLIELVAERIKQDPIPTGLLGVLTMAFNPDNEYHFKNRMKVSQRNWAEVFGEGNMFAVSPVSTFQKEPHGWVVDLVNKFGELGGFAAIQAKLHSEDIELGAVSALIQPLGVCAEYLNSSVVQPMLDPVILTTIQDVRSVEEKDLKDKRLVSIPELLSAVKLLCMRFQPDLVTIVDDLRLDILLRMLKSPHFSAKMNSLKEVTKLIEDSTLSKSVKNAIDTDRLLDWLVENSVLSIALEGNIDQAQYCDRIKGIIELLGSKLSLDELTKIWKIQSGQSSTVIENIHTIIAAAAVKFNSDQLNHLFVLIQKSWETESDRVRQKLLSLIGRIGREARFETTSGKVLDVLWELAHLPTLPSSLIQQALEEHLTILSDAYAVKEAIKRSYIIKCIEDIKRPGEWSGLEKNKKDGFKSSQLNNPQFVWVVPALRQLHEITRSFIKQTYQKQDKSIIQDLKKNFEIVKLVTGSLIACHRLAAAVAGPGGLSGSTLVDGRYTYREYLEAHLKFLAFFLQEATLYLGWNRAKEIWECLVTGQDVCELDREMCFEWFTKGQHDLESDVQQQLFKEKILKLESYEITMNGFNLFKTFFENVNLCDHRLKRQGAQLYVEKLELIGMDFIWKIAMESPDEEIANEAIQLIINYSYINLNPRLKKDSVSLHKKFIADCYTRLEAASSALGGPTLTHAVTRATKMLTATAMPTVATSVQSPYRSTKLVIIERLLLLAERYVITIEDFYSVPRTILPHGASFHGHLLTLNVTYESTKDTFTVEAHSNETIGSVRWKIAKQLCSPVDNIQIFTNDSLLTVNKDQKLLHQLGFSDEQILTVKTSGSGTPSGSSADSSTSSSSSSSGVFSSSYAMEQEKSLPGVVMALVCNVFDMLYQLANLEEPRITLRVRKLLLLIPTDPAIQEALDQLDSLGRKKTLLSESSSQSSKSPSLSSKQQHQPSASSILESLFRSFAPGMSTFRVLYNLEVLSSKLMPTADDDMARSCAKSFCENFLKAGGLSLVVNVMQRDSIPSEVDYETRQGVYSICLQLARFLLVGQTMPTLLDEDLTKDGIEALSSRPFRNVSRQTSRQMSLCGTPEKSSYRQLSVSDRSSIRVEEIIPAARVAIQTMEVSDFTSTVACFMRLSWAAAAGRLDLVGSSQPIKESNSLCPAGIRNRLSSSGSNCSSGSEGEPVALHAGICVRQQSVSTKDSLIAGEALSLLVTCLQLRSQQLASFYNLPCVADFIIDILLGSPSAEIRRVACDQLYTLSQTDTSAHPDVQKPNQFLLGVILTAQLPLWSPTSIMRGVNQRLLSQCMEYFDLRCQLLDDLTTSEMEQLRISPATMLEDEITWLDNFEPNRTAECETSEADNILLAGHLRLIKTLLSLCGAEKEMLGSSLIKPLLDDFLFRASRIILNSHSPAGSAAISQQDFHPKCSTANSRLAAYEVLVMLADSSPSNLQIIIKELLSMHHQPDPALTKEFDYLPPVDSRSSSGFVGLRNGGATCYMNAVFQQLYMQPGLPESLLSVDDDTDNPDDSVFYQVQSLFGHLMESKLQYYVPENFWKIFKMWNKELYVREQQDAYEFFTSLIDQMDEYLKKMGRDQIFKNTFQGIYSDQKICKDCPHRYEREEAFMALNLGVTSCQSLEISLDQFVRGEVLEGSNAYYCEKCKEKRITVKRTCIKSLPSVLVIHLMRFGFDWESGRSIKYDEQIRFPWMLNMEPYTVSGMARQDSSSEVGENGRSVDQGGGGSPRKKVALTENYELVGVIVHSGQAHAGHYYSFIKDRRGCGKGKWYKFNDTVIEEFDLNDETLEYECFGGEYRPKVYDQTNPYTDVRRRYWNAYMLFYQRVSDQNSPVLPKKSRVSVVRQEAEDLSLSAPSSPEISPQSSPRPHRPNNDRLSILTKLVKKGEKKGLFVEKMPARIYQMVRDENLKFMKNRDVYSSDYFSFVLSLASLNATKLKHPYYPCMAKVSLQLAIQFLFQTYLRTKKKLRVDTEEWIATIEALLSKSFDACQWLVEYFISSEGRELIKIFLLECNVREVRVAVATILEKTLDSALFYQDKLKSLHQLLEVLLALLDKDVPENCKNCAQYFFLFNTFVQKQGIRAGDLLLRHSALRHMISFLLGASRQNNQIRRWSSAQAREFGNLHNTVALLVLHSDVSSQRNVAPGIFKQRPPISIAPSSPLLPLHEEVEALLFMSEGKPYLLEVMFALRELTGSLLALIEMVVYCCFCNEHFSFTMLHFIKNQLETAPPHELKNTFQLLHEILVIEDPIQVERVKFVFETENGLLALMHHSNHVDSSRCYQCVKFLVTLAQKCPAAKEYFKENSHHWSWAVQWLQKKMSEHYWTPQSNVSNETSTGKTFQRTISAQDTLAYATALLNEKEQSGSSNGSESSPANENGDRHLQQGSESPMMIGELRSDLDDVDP
UniProt Q9ULX3: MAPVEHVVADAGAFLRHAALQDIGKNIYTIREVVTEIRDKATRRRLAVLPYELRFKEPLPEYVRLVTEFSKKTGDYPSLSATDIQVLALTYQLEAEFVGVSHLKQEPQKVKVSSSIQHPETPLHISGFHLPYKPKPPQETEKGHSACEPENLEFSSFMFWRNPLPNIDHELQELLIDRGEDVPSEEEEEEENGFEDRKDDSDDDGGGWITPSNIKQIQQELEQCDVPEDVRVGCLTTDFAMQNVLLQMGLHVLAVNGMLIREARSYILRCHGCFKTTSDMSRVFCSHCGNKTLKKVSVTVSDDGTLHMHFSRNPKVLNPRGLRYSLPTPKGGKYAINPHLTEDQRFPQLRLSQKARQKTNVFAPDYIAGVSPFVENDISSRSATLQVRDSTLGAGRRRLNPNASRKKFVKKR
UniProt Q9UJW0, whole entry: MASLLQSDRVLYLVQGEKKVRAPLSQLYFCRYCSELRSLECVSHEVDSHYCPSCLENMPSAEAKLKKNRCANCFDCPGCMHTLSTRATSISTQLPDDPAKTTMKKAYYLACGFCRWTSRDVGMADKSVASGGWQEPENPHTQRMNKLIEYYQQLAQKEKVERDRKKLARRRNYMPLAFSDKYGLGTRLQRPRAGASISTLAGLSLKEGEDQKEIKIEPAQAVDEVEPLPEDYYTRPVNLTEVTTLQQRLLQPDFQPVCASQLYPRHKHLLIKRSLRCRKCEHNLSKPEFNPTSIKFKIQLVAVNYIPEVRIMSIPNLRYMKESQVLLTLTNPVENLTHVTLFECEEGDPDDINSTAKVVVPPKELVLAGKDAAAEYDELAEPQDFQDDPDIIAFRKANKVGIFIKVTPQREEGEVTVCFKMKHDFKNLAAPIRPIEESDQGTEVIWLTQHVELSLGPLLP
UniProt Q9Y259: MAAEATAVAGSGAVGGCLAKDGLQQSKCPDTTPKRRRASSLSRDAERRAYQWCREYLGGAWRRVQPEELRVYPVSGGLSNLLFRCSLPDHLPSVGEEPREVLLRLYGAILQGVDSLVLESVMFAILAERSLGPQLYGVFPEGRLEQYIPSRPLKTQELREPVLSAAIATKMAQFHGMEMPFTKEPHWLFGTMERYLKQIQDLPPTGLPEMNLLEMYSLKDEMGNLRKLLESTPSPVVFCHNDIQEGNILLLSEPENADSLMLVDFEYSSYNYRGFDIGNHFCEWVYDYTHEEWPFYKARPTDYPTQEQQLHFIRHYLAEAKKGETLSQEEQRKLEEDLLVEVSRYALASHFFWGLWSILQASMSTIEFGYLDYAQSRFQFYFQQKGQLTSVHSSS
UniProt Q9UJU2, whole entry: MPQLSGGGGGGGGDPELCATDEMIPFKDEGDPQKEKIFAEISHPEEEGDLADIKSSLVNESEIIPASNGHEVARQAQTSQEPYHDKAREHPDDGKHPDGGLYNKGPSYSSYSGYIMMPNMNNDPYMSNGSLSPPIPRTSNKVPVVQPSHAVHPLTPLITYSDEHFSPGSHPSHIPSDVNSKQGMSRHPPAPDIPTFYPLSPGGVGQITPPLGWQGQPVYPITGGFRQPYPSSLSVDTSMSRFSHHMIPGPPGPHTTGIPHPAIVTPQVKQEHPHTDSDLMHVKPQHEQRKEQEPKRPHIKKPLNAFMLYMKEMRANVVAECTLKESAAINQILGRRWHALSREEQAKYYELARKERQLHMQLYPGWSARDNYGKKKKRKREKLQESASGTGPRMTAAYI
UniProt Q9Y2U8: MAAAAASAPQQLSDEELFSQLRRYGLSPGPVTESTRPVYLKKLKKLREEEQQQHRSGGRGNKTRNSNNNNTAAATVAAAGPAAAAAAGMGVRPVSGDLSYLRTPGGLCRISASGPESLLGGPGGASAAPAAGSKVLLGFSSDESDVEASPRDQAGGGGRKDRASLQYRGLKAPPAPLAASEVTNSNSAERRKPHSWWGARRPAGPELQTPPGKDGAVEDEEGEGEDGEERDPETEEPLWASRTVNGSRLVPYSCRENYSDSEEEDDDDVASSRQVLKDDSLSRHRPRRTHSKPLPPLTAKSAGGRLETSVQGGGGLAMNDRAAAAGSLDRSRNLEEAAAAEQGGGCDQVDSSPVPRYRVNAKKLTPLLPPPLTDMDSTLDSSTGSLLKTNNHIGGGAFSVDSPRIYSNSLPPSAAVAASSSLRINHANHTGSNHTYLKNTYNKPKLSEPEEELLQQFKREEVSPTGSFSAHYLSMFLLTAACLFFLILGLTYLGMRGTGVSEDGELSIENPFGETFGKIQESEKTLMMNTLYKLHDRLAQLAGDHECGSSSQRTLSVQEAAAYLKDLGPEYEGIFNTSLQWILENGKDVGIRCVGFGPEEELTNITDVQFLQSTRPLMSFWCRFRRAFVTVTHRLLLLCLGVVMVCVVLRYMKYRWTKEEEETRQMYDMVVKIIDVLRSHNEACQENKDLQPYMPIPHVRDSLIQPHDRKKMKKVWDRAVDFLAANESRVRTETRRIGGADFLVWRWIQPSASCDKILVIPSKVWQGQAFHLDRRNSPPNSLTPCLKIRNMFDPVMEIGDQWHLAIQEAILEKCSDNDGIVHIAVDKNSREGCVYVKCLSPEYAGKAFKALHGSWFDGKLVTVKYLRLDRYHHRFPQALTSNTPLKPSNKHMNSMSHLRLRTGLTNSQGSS

Compound: Nc1ncnc2c1ncn2[C@@H]1O[C@H](COP(=O)(O)OP(=O)(O)NP(=O)(O)O)[C@@H](O)[C@H]1O [adenylyl imidodiphosphate]
Assay: NP40-soluble protein abundance relative to vehicle (solubility fold change) (ratio); higher = more soluble protein in presence of AMP-PNP
Details: concentration: 0.1mM
Summary of the method: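 Data come from three independent experiments in which Dounce-homogenised Jurkat crude lysate was treated at eight concentrations from 0.1 to 10 mM. Treatment ran 10 min at room temperature and then 3 min at 37 °C, after which 0.8% NP40 and benzonase were added for 60 min at 4 °C before ultracentrifugation. The supernatant underwent TMT labelling and LC-MS/MS, and vsn-normalised intensities were expressed as fold change against the detergent-processed vehicle in each replicate.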

Target	NP40-soluble protein abundance
TRAF3IP3 (UniProt Q9Y228)	1 ± 0.049
UniProt Q9UJ83 and related entries	1.01 ± 0.043
UniProt Q9Y232 and related entries	0.979 ± 0.072
USP24 (UniProt Q9UPU5)	0.999 ± 0.022
FKBPL (UniProt Q9UIM3)	0.982 ± 0.016
NOB1 (UniProt Q9ULX3)	1.04 ± 0.021
ARMCX3 (UniProt Q9UH62)	1.01 ± 0.028
UniProt Q9UDT6 and related entries	1.02 ± 0.037
PA2G4 (UniProt Q9UQ80)	0.98 ± 0.032
DCTN4 (UniProt Q9UJW0)	0.99 ± 0.023
UniProt Q9UIB8 and related entries	0.9731 ± 0.0057
SLC39A10 (UniProt Q9ULF5)	0.963 ± 0.022
UniProt Q9UL18	1.028 ± 0.005
UniProt Q9UPN7	1.05 ± 0.037
UniProt Q9Y3C4 and related entries	1 ± 0.075
UniProt Q9Y259 and related entries	1 ± 0.011
UniProt Q9Y2X0-2|Q9Y2X0-3|Q9Y2X0	1.006 ± 0.0028
MRPS16 (UniProt Q9Y3D3)	1.04 ± 0.025
UniProt Q9UJU2 and related entries	1.01 ± 0.066
LEMD3 (UniProt Q9Y2U8)	0.997 ± 0.035
UniProt Q9ULU4-11|Q9ULU4-19|Q9ULU4-7|A0A087WYS3|Q9ULU4-13|Q9ULU4-22|Q9ULU4-8|Q9ULU4-9	0.996 ± 0.032
UniProt Q9UM21	1 ± 0.042
UniProt Q9UKX3	0.983 ± 0.068
NAGK (UniProt Q9UJ70)	1.03 ± 0.045
UniProt Q9UPQ9-1|Q9UPQ9 and related entries	0.975 ± 0.025

Random excerpt: two records from the list, in no set order.
Target	NP40-soluble protein abundance
MRPS16 (UniProt Q9Y3D3)	1.04 ± 0.025
UniProt Q9UJ83 and related entries	1.01 ± 0.043
